From the supplement of paper PMC11264405

Assays:
Experiment in all cases: minimum inhibitory concentration
clindamycin = compound: CCC[C@@H]1C[C@@H](C(=O)N[C@@H]([C@H]2O[C@H](SC)[C@H](O)[C@@H](O)[C@H]2O)[C@H](C)Cl)N(C)C1 [clindamycin]
tigecycline = compound: CN(C)c1cc(NC(=O)CNC(C)(C)C)c(O)c2c1C[C@H]1C[C@H]3[C@H](N(C)C)C(O)=C(C(N)=O)C(=O)[C@@]3(O)C(O)=C1C2=O [tigecycline]
metronidazole = compound: Cc1ncc([N+](=O)[O-])n1CCO [metronidazole]
imipenem = compound: C[C@@H](O)[C@H]1C(=O)N2C(C(=O)O)=C(SCCNC=N)C[C@H]12 [imipenem]
vancomycin = compound: CN[C@H](CC(C)C)C(=O)N[C@H]1C(=O)N[C@@H](CC(N)=O)C(=O)N[C@H]2C(=O)N[C@H]3C(=O)N[C@H](C(=O)N[C@H](C(=O)O)c4cc(O)cc(O)c4-c4cc3ccc4O)[C@H](O)c3ccc(c(Cl)c3)Oc3cc2cc(c3O[C@@H]2O[C@H](CO)[C@@H](O)[C@H](O)[C@H]2O[C@H]2C[C@](C)(N)[C@H](O)[C@H](C)O2)Oc2ccc(cc2Cl)[C@H]1O [vancomycin]
meropenem = compound: C[C@@H](O)[C@H]1C(=O)N2C(C(=O)O)=C(S[C@@H]3CN[C@H](C(=O)N(C)C)C3)[C@H](C)[C@H]12 [meropenem]
rifampicin = compound: CO[C@H]1/C=C/O[C@@]2(C)Oc3c(C)c(O)c4c(O)c(c(/C=N/N5CCN(C)CC5)c(O)c4c3C2=O)NC(=O)/C(C)=C\C=C\[C@H](C)[C@H](O)[C@@H](C)[C@@H](O)[C@@H](C)[C@H](OC(C)=O)[C@@H]1C [rifampicin]
linezolid = compound: CC(=O)NC[C@H]1CN(c2ccc(N3CCOCC3)c(F)c2)C(=O)O1 [linezolid]
fidaxomicin = compound: CCc1c(Cl)c(O)c(Cl)c(O)c1C(=O)O[C@H]1[C@H](O)[C@H](OC)[C@H](OC/C2=C\C=C\C[C@H](O)/C(C)=C/[C@H](CC)[C@@H](O[C@@H]3OC(C)(C)[C@@H](OC(=O)C(C)C)[C@H](O)[C@@H]3O)/C(C)=C/C(C)=C/C[C@@H]([C@@H](C)O)OC2=O)O[C@@H]1C [fidaxomicin]

| Test System | minimum inhibitory concentration (clindamycin) | minimum inhibitory concentration (tigecycline) | minimum inhibitory concentration (metronidazole) | minimum inhibitory concentration (imipenem) | minimum inhibitory concentration (vancomycin) | minimum inhibitory concentration (meropenem) | minimum inhibitory concentration (rifampicin) | minimum inhibitory concentration (linezolid) | minimum inhibitory concentration (fidaxomicin) |
| --- | --- | --- | --- | --- | --- | --- | --- | --- | --- |
| Clostridioides difficile PCR ribotype 001 isolate #1 (European region: East, country: Slovakia, isolate source: Human, ribotype: 001) | > 128 µg/mL | < 0.03 µg/mL | 0.25 µg/mL | 2 µg/mL | 0.5 µg/mL | 1 µg/mL | < 0.001 µg/mL | < 0.125 µg/mL | 0.015 µg/mL |
| Clostridioides difficile PCR ribotype 001 isolate #2 (European region: East, country: Romania, isolate source: Human, ribotype: 001) | > 128 µg/mL | < 0.03 µg/mL | 0.5 µg/mL | 8 µg/mL | 0.5 µg/mL | 4 µg/mL | < 0.001 µg/mL | 2 µg/mL | 0.008 µg/mL |
| Clostridioides difficile PCR ribotype 001 isolate #3 (European region: East, country: Romania, isolate source: Human, ribotype: 001) |  | < 0.03 µg/mL | 1 µg/mL | 8 µg/mL | < 0.125 µg/mL | 4 µg/mL | < 0.001 µg/mL | 1 µg/mL | 0.004 µg/mL |
| Clostridioides difficile PCR ribotype 001 isolate #4 (European region: East, country: Slovakia, isolate source: Human, ribotype: 001) | > 128 µg/mL | < 0.03 µg/mL | 0.5 µg/mL | 2 µg/mL | < 0.125 µg/mL | 2 µg/mL | < 0.001 µg/mL | 2 µg/mL | 0.004 µg/mL |
| Clostridioides difficile PCR ribotype 001 isolate #5 (European region: North, country: UK, isolate source: Human, ribotype: 001) | 1 µg/mL | < 0.03 µg/mL | < 0.125 µg/mL | 2 µg/mL | 0.5 µg/mL | 4 µg/mL | < 0.001 µg/mL | 2 µg/mL | 0.015 µg/mL |
| Clostridioides difficile PCR ribotype 001 isolate #6 (European region: South, country: Spain, isolate source: Human, ribotype: 001) | 1 µg/mL | 0.06 µg/mL | 0.25 µg/mL | 4 µg/mL | 0.5 µg/mL | 2 µg/mL | < 0.001 µg/mL | 2 µg/mL | 0.008 µg/mL |
| Clostridioides difficile PCR ribotype 001 isolate #7 (European region: South, country: Spain, isolate source: Human, ribotype: 001) | 8 µg/mL | 0.06 µg/mL | 0.25 µg/mL | 4 µg/mL | 0.5 µg/mL | 4 µg/mL | < 0.001 µg/mL | 2 µg/mL | 0.004 µg/mL |
| Clostridioides difficile PCR ribotype 002 isolate #283 (European region: West, country: Netherlands, isolate source: Animal, ribotype: 002) | 16 µg/mL | < 0.03 µg/mL | < 0.125 µg/mL |  | 0.5 µg/mL | 4 µg/mL | < 0.001 µg/mL | 2 µg/mL | 0.06 µg/mL |
| Clostridioides difficile PCR ribotype 009 isolate #39 (European region: South, country: Italy, isolate source: Human, ribotype: 009) | 16 µg/mL | < 0.03 µg/mL | < 0.125 µg/mL | 1 µg/mL | 0.5 µg/mL |  | < 0.001 µg/mL | 2 µg/mL | 0.06 µg/mL |
| Clostridioides difficile PCR ribotype 010 isolate #46 (European region: South, country: Spain, isolate source: Human, ribotype: 010) | 8 µg/mL | < 0.03 µg/mL | 0.25 µg/mL | 4 µg/mL | 0.5 µg/mL | 4 µg/mL | 0.002 µg/mL | 2 µg/mL |  |
| Clostridioides difficile PCR ribotype 014 isolate #74 (European region: West, country: Netherlands, isolate source: Human, ribotype: 014) | 8 µg/mL | < 0.03 µg/mL | 0.25 µg/mL | 1 µg/mL | 0.5 µg/mL | 4 µg/mL | < 0.001 µg/mL |  | 0.03 µg/mL |
| Clostridioides difficile PCR ribotype 014 isolate #75 (European region: South, country: Italy, isolate source: Human, ribotype: 014) | 16 µg/mL | 0.06 µg/mL | < 0.125 µg/mL | 1 µg/mL | 0.5 µg/mL | 2 µg/mL | < 0.001 µg/mL |  | 0.03 µg/mL |
| Clostridioides difficile PCR ribotype 014 isolate #77 (European region: South, country: Italy, isolate source: Human, ribotype: 014) | 16 µg/mL | 0.125 µg/mL | 0.25 µg/mL | 2 µg/mL | 0.5 µg/mL |  | < 0.001 µg/mL | 2 µg/mL | 0.015 µg/mL |

A section taken from the entries so far, as a working copy:

| Test System | minimum inhibitory concentration (clindamycin) | minimum inhibitory concentration (tigecycline) | minimum inhibitory concentration (metronidazole) | minimum inhibitory concentration (imipenem) | minimum inhibitory concentration (vancomycin) | minimum inhibitory concentration (meropenem) | minimum inhibitory concentration (rifampicin) | minimum inhibitory concentration (linezolid) | minimum inhibitory concentration (fidaxomicin) |
| --- | --- | --- | --- | --- | --- | --- | --- | --- | --- |
| Clostridioides difficile PCR ribotype 010 isolate #46 (European region: South, country: Spain, isolate source: Human, ribotype: 010) | 8 µg/mL | < 0.03 µg/mL | 0.25 µg/mL | 4 µg/mL | 0.5 µg/mL | 4 µg/mL | 0.002 µg/mL | 2 µg/mL |  |
| Clostridioides difficile PCR ribotype 014 isolate #74 (European region: West, country: Netherlands, isolate source: Human, ribotype: 014) | 8 µg/mL | < 0.03 µg/mL | 0.25 µg/mL | 1 µg/mL | 0.5 µg/mL | 4 µg/mL | < 0.001 µg/mL |  | 0.03 µg/mL |
